Results as given in publication PMC10163288.
This is one part of the list.

B1: il10ra_site1_normal_mot_b26a303360aa2756ef5b79665ce52f45_0001_000000179_0001_1_11_H_._HHH_b1_00459_0001_0000400033_0000001_0 (protein)
chain: SSSSDLHELTEEVFRLLKEAAESGDEELLEEVLEELLRLAQEVNNVVLVFSLEHKLRALRSSSSS
B2: il10ra_site1_sap_37_mot_49468d6c54d8157f7969f91124172a68_0001_af2_000000173_0001_37_51_H_._f047eb42cf1b485822c4fa8256f1421d_0001_0001_0000100003_0000001_1_0001 (protein)
chain: SSSSSSDDALELSVEAFRLALRGNPEEAEKVLEKALEIAEENNNERLKEMLEQLLKTQSSSSSSS
B3: il10ra_site1_sap_18_mot_HHH_b2_03220_af2_000000223_0001_23_40_H_._HHH_b1_03263_af2_0001_0000400016_0000002_0_0001 (protein)
chain: SSSSSLAEEAYRLLREAMEAMDEGDEELVRELIEEAEKLAEEAGNRVILQVIRWSLERFNSSSSS
B4: il10ra_site1_normal_mot_HHH_b1_01011_000000096_0001_1_19_H_._HHH_b1_08664_0001_0000100005_0000001_0 (protein)
chain: SSSSSSDYLELSLKFAKFLLEEGDEEAARRILKAAADVAEREGDPLLEEIEELLEEVRSSSSSSS
B5: il10ra_site1_normal_mot_HHH_b2_08144_af2_000000046_0001_38_52_H_._HHH_b1_08340_af2_0001_0000200013_0000001_0 (protein)
chain: SSSSDELIQRIFKLLRELAELVHEGNEEEVERVYEEIKELLEELGNPLLEIQLEFLFRSLRSSSS
B6: il10ra_site1_normal_mot_HHH_b1_06789_af2_000000041_0001_1_20_H_._HHH_b1_02788_0001_0000200021_0000002_0 (protein)
chain: SSSSDLEEEIEEAIEEARENGDEHIVEILENLLRQIRRDGSPNARWLVRQVIKALKNLLENSSSS
B7: il10ra_site1_sap_20_mot_HHH_b2_03220_af2_000000223_0001_23_40_H_._HHH_b1_00867_0001_0000100009_0000001_0_0001 (protein)
chain: SSSSDEETQEILRLIEEAMKLATEGDPEEAREVLREAEEIAEEINNRLAKIQIEFVLRRLGSSSS
B8: il10ra_site1_sap_15_mot_HHH_b2_00475_000000002_0001_44_57_H_._HHH_b2_02112_0001_0000100002_0000001_0_0001 (protein)
chain: SSSSSEENRRLYELLRRAVELDHEGNPEEAEEVLEEARELAEEANNRVLLAVIRAMQELLNSSSS
B9: il10ra_site1_normal_mot_HHH_b1_02397_af2_000000085_0001_39_57_H_._HHH_b2_04508_0001_0000400009_0000002_0 (protein)
chain: SSSSDREEELKELLKELEELVEEGDRERAAKVAIRVLRLAFRANDPEAVRAVWRILREYLSSSSS
B10: il10ra_site1_normal_mot_HHH_b1_00666_000000226_0001_43_56_H_._7a3d71bd8e0044baaa50656571eb2fb7_0001_0001_0000100007_0000001_0 (protein)
chain: SEEEEVLEELIRRLKESGDPELRRLAEEIEELRKEDKQRALQLASAVALALGDEELVQLLWKVAL
B11: il10ra_site1_sap_16_mot_HHH_b2_07144_000000289_0001_1_18_H_._HHH_b2_05176_0001_0000100005_0000001_0_0001 (protein)
chain: SSSSDEANERVWELIRRVLELLAEGNPEEAREVLEEAHEIAEENNNRLLQIQIEFLERDLDSSSS
B12: il10ra_site1_normal_mot_e1dd4851c59bc1cdde016f988f6856bd_0001_1_000000200_0001_16_31_H_._HHH_b1_02795_0001_0000100003_0000001_1_af2pred_0001 (protein)
chain: SSSSSETEKLVREIAKLLHQLLREGNPEEAEKLTKEAEEELEELGDEEAVRMLRVILKLAISSSS
B13: il10ra_site1_normal_mot_fda5df8c19bda1ddfcc41857df859eb0_0001_1_000000120_0001_35_49_H_._HEEHE_1459_0001_0000300017_0000001_0_af2pred_dldesign_0_af2pred (protein)
chain: SKEDKMKLAFERLAAQAGVPRFTVEVKDGKATVTLTGDAAAVAAARTAIEAAAELMQVEIEITVE
B14: il10ra_site1_normal_mot_HHH_b2_00273_000000062_0001_23_39_H_._HHH_b2_06821_0001_0000300032_0000001_0 (protein)
chain: SSSSEIEEFIEEVEERVRELVERGDTEEALQLLWEAAKLVAENNDEEALRILMELLRLVFRSSSS
B15: il10ra_site1_sap_21_mot_HHH_b2_00800_af2_000000047_0001_1_20_H_._HHH_b2_03457_af2_0001_0000400023_0000001_0_0001 (protein)
chain: SSSSDEWYEKLKKLIEEIVKAERNNDPELVEELLKELEELIEQRNDWAARFDLELLERAHSSSSS
B16: il10ra_site1_normal_mot_HHH_b1_05056_000000217_0001_1_20_H_._HHH_b1_06984_0001_0000200007_0000002_0 (protein)
chain: SSSSDRVEELLEEAEEAAERGDEERALELLLEATHFALQLGDPELLQEVWEVVKEVERLLSSSSS
B17: il10ra_site1_normal_mot_HHH_b2_00984_000000042_0001_1_20_H_._HHH_b1_07795_af2_0001_0000700037_0000002_0 (protein)
chain: SSSSDEEERVEELLEELEELLKRNDEEEFSRVAQEAVRLAFRAGNAELLREIWELIRKLRSSSSS
B18: il10ra_site1_normal_mot_HHH_b1_02397_af2_000000085_0001_39_57_H_._HHH_b1_02630_0001_0000200012_0000001_0 (protein)
chain: SSSSDEEEEEVRRLLEEIEKLIEEGDPEKVARLLIEVLRLVFQIGNDELIQEVWRLAKLIASSSS
B19: il10ra_site1_normal_mot_HHH_b2_07006_000000108_0001_1_19_H_._HHH_b2_03086_0001_0000200010_0000001_0_af2pred_0001 (protein)
chain: SSSSSDEEEVRERIEELLEEAKHVDLEEALKLIREAHKLAVEIGDPELLKLVAKVLRELLSSSSS
B20: il10ra_site1_sap_15_mot_HHH_b1_05357_000000034_0001_23_39_H_._HHH_b2_00918_0002_0000100001_0000001_0_0001 (protein)
chain: SSSSDERQRVLRLLIEIFRLMLRGDHEEARELLEEVERLAEELGDEALRKAVEIYEQALKSSSSS
B21: il10ra_site1_sap_15_mot_HHH_b2_00597_000000260_0001_41_55_H_._HHH_b2_05338_0001_0000200028_0000001_1_0001 (protein)
chain: SEEEFVKIAVEAAAEIANVPSFSVSFSNGTVEVTIEGDSPAARELERMVRFQAMALGVEVHVEIE
B22: il10ra_site1_sap_10_mot_HHH_b2_00943_af2_000000149_0001_1_17_H_._HHH_b2_02363_0001_0000300025_0000001_0_0001_af2pred_0001 (protein)
chain: SSSSDEKERVAQLSREIAELLEEGDREEAEKLLEEVEELAEELGDERLKLHVRFLKALLDSSSSS
B23: il10ra_site1_sap_15_mot_HHH_b2_02386_000000054_0001_1_20_H_._HHH_b1_07590_af2_0001_0000300009_0000001_0_0001 (protein)
chain: QEHTLIEAAVRLFALAARLSDVEVEFSNGKVEVTINGTSESAERLRRWLEIVARAHNLEVEVETE
B24: il10ra_site1_sap_15_mot_HHH_b2_02053_af2_000000006_0001_3_19_H_._HHH_b2_06464_0001_0000100006_0000002_0_0001 (protein)
chain: SSSSSHAERSAEIFLKAIKDALKAGDDEYARMALRFLKWLAEAANNEEVREIAEEARELIGSSSS
B25: il10ra_site1_sap_23_mot_HHH_b1_04771_000000013_0001_40_56_H_._HHH_b1_00861_0001_0000600044_0000002_0_0001 (protein)
chain: SSSSSEEKEELLRLLMELARALIRGDEEEARELLEELKELAEETNDEAAKKAVEIVEQALKSSSS
B26: il10ra_site1_sap_18_mot_39ab2cb694c8b9c1dc7e65c0d672c93e_0001_000000036_0001_53_65_H_._HHH_b1_04212_0001_0000500037_0000001_0_0001 (protein)
chain: SSSSDEELEEALRLSIEAFRAALRGNPEEAEKLLEEALQLAEEGGDERLAKQIESLLRALKSSSS
B27: il10ra_site1_sap_20_mot_HHH_b1_03531_000000273_0001_41_54_H_._HHH_b1_05519_0001_0000300028_0000001_0_0001 (protein)
chain: SSSSSEERREVFELIERAIKLHADGNREEAEEVLERAEEIAREAGDMLLLVQLEFLLRLIESSSS
B28: il10ra_site1_sap_25_mot_HHH_b1_04275_000000150_0001_22_39_H_._HHH_b1_04907_0001_0000300014_0000001_0_0001_af2pred_0001 (protein)
chain: SSSSSSDLSEEVVRLLREALEIDDPEEAREVAEQALELAEEGNNPELVFIARFLLRQLSSSSSSS
B29: il10ra_site1_normal_mot_HHH_b2_05944_000000135_0001_38_52_H_._HHH_b2_04207_0001_0000100002_0000001_0_af2pred_dldesign_0_af2pred (protein)
chain: SSSSSKAQELAENTLHAIKVLLEEGKPEEAKATYEYYKKVLEALGDPEALKYLDEEYAKLLSSSS
B30: il10ra_site1_normal_mot_HHH_b1_01011_000000096_0001_1_19_H_._HHH_b2_02684_af2_0001_0000300011_0000001_0 (protein)
chain: SSSSDEELEEYTRLAERFAEALYKSGDPEAARLLLRNLLQALKRLGDEELFERAEELLEELSSSS
B31: il10ra_site1_normal_mot_HHH_b1_08477_000000091_0001_40_57_H_._HHH_b1_05558_0001_0000500062_0000002_0 (protein)
chain: SSSSSRVEQAFKFAEALLKDGDPEAAHRIARIALELAEKEGDEELEELLRRLLEEIEEELGSSSS
B32: il10ra_site1_normal_mot_HHH_b2_05813_000000266_0001_1_19_H_._HHH_b1_02254_0001_0000100009_0000001_0 (protein)
chain: SSSSSDEEERVFQLLVRLQFLLDKGDEEQLRELLEEAKELAEELNDPVLRRAIEIIEELGSSSSS
B33: il10ra_site1_sap_19_mot_HHH_b1_06837_000000150_0001_20_37_H_._HHH_b2_00783_0001_0000100016_0000001_0_0001 (protein)
chain: SSSSDERHEALRLAAEALRAAYQKSDEEALQALWRLIRRLAREGDPELVRELEELAEEIINSSSS
B34: il10ra_site1_sap_26_mot_HHH_b1_03260_000000175_0001_42_57_H_._HHH_b1_06337_af2_0001_0000500021_0000001_0_0001 (protein)
chain: SSSSDEEAYEIIKRLARLLIRGNLEEAQELLEELKELAEELNDPALKRAVEIIQRAIEANSSSSS
B35: il10ra_site1_normal_mot_HHH_b2_08144_af2_000000046_0001_38_52_H_._HHH_b2_07064_af2_0001_0000600024_0000001_0 (protein)
chain: SSSSDEEVQEVYELSRRAAELHHDGNKEEAEELLERARELAKELNNPLLLIQVEFLLRLASSSSS
B36: il10ra_site1_normal_mot_ems_3hM_2400_000000184_0001_1_19_H_._HHH_b2_03037_0001_0000100006_0000001_0 (protein)
chain: SSSSDEEEREEVEEILEEAKHIEDEHERAQVLFEAFRRAWEIRDPEAVQLVLRVAARLLDSSSSS
B37: il10ra_site1_sap_25_mot_HHH_b1_01011_000000096_0001_1_19_H_._HHH_b2_01824_af2_0001_0000200005_0000001_1_0001 (protein)
chain: SSSSDAEHYVRAALRFARALYEAGDPEAARRILRAVIEALRRLGDEEAVEKAEELLEEIEKSSSS

The binders below were run against il10ra, Q13651 (assay: yeast display titration).

Apparent Kd, inactive:
B1 no binding seen, B2 no binding seen, B3 no binding seen, B4 no binding seen, B5 no binding seen, B6 no binding seen, B7 no binding seen, B8 no binding seen, B9 no binding seen, B10 no binding seen, B11 no binding seen, B12 no binding seen, B13 no binding seen, B14 no binding seen, B15 no binding seen, B16 no binding seen, B17 no binding seen, B18 no binding seen, B19 no binding seen, B20 no binding seen, B21 no binding seen, B22 no binding seen, B23 no binding seen, B24 no binding seen, B25 no binding seen, B26 no binding seen, B27 no binding seen, B28 no binding seen, B29 no binding seen, B30 no binding seen, B31 no binding seen, B32 no binding seen, B33 no binding seen, B34 no binding seen, B35 no binding seen, B36 no binding seen, B37 no binding seen
